# Data reported in PubChem BioAssay AID2685 (National Center for Advancing Translational Sciences (NCATS), 2010).
# About 2,100 (0.66%) of roughly 320,000 compounds were called active. This list was built around the results that the source calls inconclusive (neither active nor inactive); the mix of calls is not that of the screen. Calls come from the whole dose curve; as a rule, active = well fitted inhibition curve with a large enough effect in the signal ratio, with a control signal flat (not every such curve was filed as active); inconclusive = small, poorly fitted or top-dose-only effect, or effect the other way, or a change in a side signal; inactive = flat fitted curve, though single readings scatter; the % refers to the signal ratio. Potencies of inconclusive entries are doubtful fits and often do not repeat.
# Experiment: qHTS Assay for Lipid Storage Modulators in Drosophila S3 Cells
# Details: BODIPY lipid droplet fluorescence, 18-24 h, cells fed with added oleic acid; lipid storage change, negative = inhibition: at 46.1 µM (top of the series) unless noted
# In short: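 Drosophila S3 cells loaded with oleic acid (400 uM, as added) and compounds at several concentrations; lipid droplets imaged by 488-nm laser-scanning cytometry, 500–530 nm intensity and object ratio to cell channel. Percent activity normalized to 20 uM Triacsin C.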
# % is set by controls: 0 for no effect and ±100 for the full control effect; potency is the fitted concentration of half-maximal effect.
Structure (SMILES),Potency,"lipid storage change, negative = inhibition"
COCCn1c(SCC(=O)NN2C(=O)NC(C)(c3ccccc3)C2=O)nnc1-c1ccncc1 (configuration not stated),"inconclusive: 13 µM [activator, partial curve]",–
O=Cc1ccc(OC(=O)c2cc(Cl)nc3ccccc23)cc1,–,inconclusive: -28.8%
O=C(Nc1ccc(NC(=O)C2CCCCC2)nc1)c1ccco1,"inconclusive: 6.51 µM [falling, single point]",–
CN(CC(=O)NC1CCCCC1)S(=O)(=O)c1cccc2cccnc12,"inconclusive: 1.03 µM [activator, full curve]",–
CCc1ccc(NC(=O)CNC(=O)c2cn(-c3ccccc3OC)c(=O)c3ccccc23)cc1,–,inconclusive: 5.57%
N#CC1=C(N)NC(SCC(=O)c2ccc(Br)cc2)=C(C#N)C12CCCCC2,"inconclusive: 0.92 µM [rising, full curve]",–
COCCn1nnnc1C(c1ccccn1)N1CCN(c2cc(Cl)ccc2C)CC1 (configuration not stated),–,inconclusive: 33.8%
O=C(O)C1CCC(=O)N1C1c2ccccc2Oc2ccccc21 (configuration not stated),–,inconclusive: 2.22%
CCCS(=O)(=O)c1nc(S(=O)(=O)c2ccc(C)cc2)c(N2CC(C)OC(C)C2)s1 (configuration not stated),active: 18.4 µM,–
c1csc(-c2cn3ccc4ccccc4c3n2)c1,"inconclusive: 16.4 µM [falling, single point]",–
CCCNC(=O)NS(=O)(=O)c1cnccc1Sc1ccc(Cl)cc1,–,inconclusive: -17.3%
CCOC(=O)c1cccnc1SCC(=O)N(CC)c1cccc(C)c1,"inconclusive: 13 µM [activator, partial curve]",–
O=C(/C=C/c1ccc(S(=O)(=O)N2CCOCC2)cc1)NCc1ccc(Cl)cc1,–,inconclusive: -13.1%
Cc1cccc(CCNC(=O)c2oc3c(C)c(C)ccc3c2C)n1,–,inconclusive: 33.2%
COc1ccc(NC(=S)N(CCCN2CCOCC2)Cc2cn(C)c3ccccc23)cc1OC,–,inconclusive: 28.2%
COc1cccc(-c2nn(C)c3sc(C(=O)N4CCOCC4)cc23)c1,"inconclusive: 5.17 µM [falling, full curve]",–
O=C(O)c1ccc(-c2ccc(OS(=O)(=O)c3ccccc3F)cc2)cc1,–,inconclusive: -100%
Cc1nc(SCC(=O)N2CCC(Cc3ccccc3)CC2)[nH]c(=O)c1C,–,inconclusive: 29.7%
COc1ccc(-c2ccc(C3C(C#N)=C(N)Oc4n[nH]c(C)c43)o2)cc1 (configuration not stated),"inconclusive: 23.1 µM [falling, partial curve, poor fit]",–
O=C(CSc1cccc2cccnc12)N/N=C/c1ccc(O)cc1,"inconclusive: 25.9 µM [falling, single point]",–
S=c1nc(NCc2cccc(Cl)c2)c2ccccc2[nH]1,–,inconclusive: -30.6%
Cc1ccc(-c2nn(-c3ccccn3)c(=O)c3ccccc23)cc1C,–,inconclusive: -17.1%
COc1cc(OC)cc(C(=O)N[C@H](C(=O)OCC(=O)NC(C)c2ccccc2)C(C)C)c1 (some centres not stated),–,inconclusive: -18.8%
COCCNC(=S)NNC(=O)c1cccs1,–,inconclusive: 13.9%
CC(OC(=O)CCN=C1NS(=O)(=O)c2ccccc21)C(=O)c1ccccc1 (configuration not stated),–,inconclusive
Cc1cccc(OC(C)C(=O)Nc2ccc(N3CCCCC3)cc2)c1 (configuration not stated),–,inconclusive

# Arranged by length of the SMILES (rising): 3 of the compounds above.
Structure (SMILES),Potency,"lipid storage change, negative = inhibition"
Cc1cccc(OC(C)C(=O)Nc2ccc(N3CCCCC3)cc2)c1 (configuration not stated),–,inconclusive
CC(OC(=O)CCN=C1NS(=O)(=O)c2ccccc21)C(=O)c1ccccc1 (configuration not stated),–,inconclusive
O=C(/C=C/c1ccc(S(=O)(=O)N2CCOCC2)cc1)NCc1ccc(Cl)cc1,–,inconclusive: -13.1%

# (more compounds)

Structure (SMILES),Potency,"lipid storage change, negative = inhibition"
Cn1cnnc1SCC(=O)N1N=C2/C(=C/c3ccco3)CCCC2C1c1ccco1 (configuration not stated),–,inconclusive: -58.8%
CC(NS(=O)(=O)c1ccc(CCC(=O)NCc2cccnc2)cc1)c1ccccc1 (configuration not stated),–,inactive
Cc1cc(C(=O)N2CCCC(N3CCN(c4ccccc4C)CC3)C2)nc(C)n1 (configuration not stated),"inconclusive: 29.1 µM [activator, single point]",–
O=C(CCn1c(=S)[nH]c2cc3c(cc2c1=O)OCO3)NCc1cccc(Cl)c1,"inconclusive: 29.1 µM [rising, single point]",–
COc1cc(/C=N/N=C(/N)c2nonc2N)cc(Br)c1OCc1cccc(C)c1,–,inconclusive: 187%
Cc1cc(C)c(C(=O)CN2C(=O)NC3(CCCCC3)C2=O)cc1C,–,inconclusive: 11.5%
COc1cc(NC(=S)NC(=O)c2ccc(F)cc2)ccc1NC(=O)c1ccco1,"inconclusive: 0.164 µM [activator, full curve, poor fit]",–
CC(C)NCC(O)c1ccc(O)c(O)c1 (configuration not stated),–,inconclusive: 17.8%
CC(C)C(C)NC(=O)COC(=O)C1CCN(S(=O)(=O)c2ccc3c(c2)OCCO3)CC1 (configuration not stated),–,inconclusive
CCOC(=O)N1CCN(C(=O)CCS(=O)(=O)c2ccc3c(c2)CCN3C(=O)CC)CC1,"inconclusive: 29.1 µM [activator, single point]",–
O=C(N/N=C/c1ccc(OC(F)F)cc1)c1cccc(S(=O)(=O)N2CCOCC2)c1,–,inconclusive: -29%
CC(C)n1ncc2c(C(=O)NCc3ccccc3CN(C)C)cc(C3CC3)nc21,"inconclusive: 0.58 µM [activator, single point]",–
CCc1ccccc1NC(=S)N(Cc1cccnc1)Cc1ccco1,"inconclusive: 10.3 µM [activator, partial curve, poor fit]",–
CCN(CC)S(=O)(=O)c1ccc(=O)n(CC(=O)N2Cc3ccccc3CC2C(N)=O)c1 (configuration not stated),–,inconclusive
COc1ccc(-c2nnc(SCC(N)=O)n2N)cc1,"inconclusive: 1.84 µM [falling, partial curve]",–
O=C1C2CCCCC2C(=O)N1c1ccc(NC2CCN(Cc3ccccc3)CC2)c([N+](=O)[O-])c1 (configuration not stated),"inconclusive: 20.6 µM [activator, single point]",–
Cc1cc2oc(=O)cc(CN3CCCCC3)c2cc1C,–,inconclusive: 18.3%
O=C(NCCCN1CCOCC1)c1ccc2c(c1)N(Cc1c(F)cccc1Cl)C(=O)c1ccccc1S2,–,inconclusive: -0.271%
O=C(CNc1ccc2ccccc2c1)N/N=C/c1ccccn1,"inconclusive: 0.0065 µM [falling, full curve, poor fit]",–
Clc1cccc(CN2COc3c(cc(Cl)c4cccnc34)C2)c1,–,inconclusive: -14%
O=C(CCc1nc2ccccc2c(=O)[nH]1)OCc1cccc(C(F)(F)F)c1,–,inactive
COc1ccc(C(=O)NCCNc2nc3ccc(C)cc3cc2C#N)cc1,active: 20.6 µM,–
C[C@@H]1CCC(=O)N(CC[C@H](Sc2ccccc2)c2ccccc2)CC1,–,inconclusive: -2.31%
CCOC(=O)C1CCCN(C(=O)C2CCN(c3nnc(-n4cccc4)s3)CC2)C1 (configuration not stated),active: 16.4 µM,–
O=C(COC(=O)c1cccnc1Cl)c1ccc2c(c1)OCCO2,"inconclusive: 7.31 µM [falling, partial curve, poor fit]",–
CCc1noc(C)c1C(=O)Oc1ccc(N(C)S(=O)(=O)c2ccc(C)c(C)c2)cc1,–,inconclusive: 33.1%

Structure (SMILES),Potency,"lipid storage change, negative = inhibition"
CCOC(=O)N1CCN(S(=O)(=O)c2ccc([N+](=O)[O-])cc2)CC1,–,inconclusive: -37.6%
CCOc1ccc(Nc2nc3c(c(=O)[nH]2)CCCC3)cc1,"inconclusive: 20.6 µM [activator, partial curve, poor fit]",–
COc1ccc(/C=C/c2nc(-c3ccccc3)cc(=O)[nH]2)cc1,–,inactive
Cc1ccc(NC(=O)NC2=NN(c3ccccc3)C(=O)/C2=C2/CCCN2C)cc1,–,inconclusive: -65.9%
CCOC(=O)C1CCN(S(=O)(=O)c2ccc3[nH]c(=O)oc3c2)CC1,–,inconclusive: -2.69%
CC(C)C[C@H](NC(=O)C1CC(=O)N(c2ccc3c(c2)OCCO3)C1)C(=O)NC1CCCC1 (some centres not stated),–,inconclusive: 0.133%
COc1ccc(/C=C/CN2CCC(CO)(Cc3ccccc3Cl)CC2)cc1,–,inconclusive: -24%
Cc1nn(Cc2ccc(Cl)cc2)c(C)c1NC(=O)/C=C/c1cnn(C)c1,"inconclusive: 5.8 µM [activator, partial curve]",–
O=C(CN1CCN(S(=O)(=O)c2ccc3ccccc3c2)CC1)N1CCc2ccccc2C1,–,inconclusive: 25.5%
Cc1cc(Cl)cc(C)c1OCCCCCn1ccnc1,–,inconclusive: -63.1%
COc1ccc(N(C)S(=O)(=O)c2cccc(C(=O)NC3CCCC3)c2)cc1,–,inconclusive: 16%
CC(C)(C)SCCNC(=O)c1ccc(NS(C)(=O)=O)cc1,–,inconclusive: 38.9%
Cc1ccccc1NC(=O)N1c2ccccc2CC1C (configuration not stated),–,inconclusive: 111%
Cc1cc(=O)oc2cc(OCC(=O)N/N=C/c3cc([N+](=O)[O-])ccc3O)ccc12,–,inconclusive: 0.931%
O=C(CN1C(=O)c2ccccc2C1=O)Nc1nnc(C2CCCO2)s1 (configuration not stated),–,inconclusive: 4.34%
O=C(CSc1ccc(-c2cccnc2)nn1)N1CCCCCC1,–,inconclusive: 2.55%
Cn1c(SCC(=O)NC2CC2)nnc1-c1ccccc1Cl,–,inconclusive: -9.4%
COC(=O)c1cc(S(=O)(=O)Nc2cccc(C)c2C)cn1C,–,inconclusive: 50.3%
O=C1CC(c2ccco2)CC(O)=C1C=NCCN1CCN(C(=O)Nc2ccc(Cl)cc2)CC1 (configuration not stated),–,inconclusive: -30.5%
CC(=O)Nc1ccc(NS(=O)(=O)c2ccc3c(c2)oc(=O)n3C)cc1,–,inconclusive: 37.5%
COc1ccc(N2C(=O)CC(Sc3nccc(C)n3)C2=O)cc1 (configuration not stated),–,inconclusive: 13.1%
COC(=O)c1ccc(NC(=O)CSc2nncn2-c2ccccn2)cc1,"inconclusive: 32.6 µM [activator, single point]",–
CC(=O)N/C(=C\c1ccccc1)C(=O)OC(C)C(=O)NCc1ccccc1 (configuration not stated),–,inconclusive
COC(=O)C1=C(C)OC(N)=C(C#N)C1c1ccccc1F (configuration not stated),–,inconclusive: 52.6%
CCOC(=O)c1ccc(NC(=O)C2CCC(CNc3c(N4CCOCC4)c(=O)c3=O)CC2)cc1 (configuration not stated),"inconclusive: 3.66 µM [activator, full curve, poor fit]",–

# Reformatted: 2 of the compounds above.
Structure (SMILES) | Potency | lipid storage change, negative = inhibition
Cc1ccc(NC(=O)NC2=NN(c3ccccc3)C(=O)/C2=C2/CCCN2C)cc1 | – | inconclusive: -65.9%
CCOC(=O)C1CCN(S(=O)(=O)c2ccc3[nH]c(=O)oc3c2)CC1 | – | inconclusive: -2.69%
